Data: the supplement of paper PMC8732350
Where “and” joins values, the source holds several entries; their conditions need not be identical. Equal entries are not always repeated. Structures can show the parent of a compound that is named as a salt. ± gives the standard deviation of the averaged measurements. This is one part of the list. Single values are uncertain here, since repeats match poorly.

test system: A549; assay: surface PD-L1 immunofluorescence intensity relative to IFN-gamma-only control (ratio); higher = more PD-L1 expression; details: 10 µM; exposure time 24 h; IFN-gamma 100 ng/mL

| SMILES | surface PD-L1 immunofluorescence intensity |
| --- | --- |
| C[C@H](CCC(=O)O)[C@H]1CC[C@H]2[C@@H]3[C@H](O)C[C@@H]4C[C@H](O)CC[C@]4(C)[C@H]3CC[C@]12C [Chenodiol] | 0.897 |
| C[C@H](CCC(=O)O)[C@H]1CC[C@H]2[C@@H]3[C@H](O)C[C@@H]4C[C@H](O)CC[C@]4(C)[C@H]3CC[C@]12C [Chenodeoxycholic acid] | 0.985 ± 0.075 |
| C[N+](C)(C)CC[N+]1(C)Cc2c(Cl)c(Cl)c(Cl)c(Cl)c2C1 [Chlorisondamine diiodide] | 0.999 |
| CN1CCN(c2c(F)cc3c(=O)c(C(=O)O)cn(CCF)c3c2F)CC1 [Fleroxacin] | 0.978 |
| CC(=O)OCC(CCn1cnc2cnc(N)nc21)COC(C)=O [Famciclovir] | 0.975 |
| COc1ccc([C@@H]2CC(=O)c3c(O)cc(O[C@@H]4O[C@H](CO)[C@@H](O)[C@H](O)[C@H]4O[C@@H]4O[C@@H](C)[C@H](O)[C@@H](O)[C@H]4O)cc3O2)cc1O [Neohesperidin] | 1.13 |
| NNc1nncc2ccccc12 [Hydralazine HCl] | 1.02 |
| NNc1nncc2ccccc12 [Hydralazine hydrochloride] | 0.959 |
| O=C(/C=C/c1ccc(O)c(O)c1)OCCc1ccccc1 [Caffeic acid phenethyl ester] | 0.918 |
| COc1c2occc2c(OC)c2c(=O)cc(C)oc12 [Khellin] | 0.916 |
| Nc1cc(C(Cl)=C(Cl)Cl)c(S(N)(=O)=O)cc1S(N)(=O)=O [Clorsulon] | 1.02 |
| Cc1ccc2c(c1)C(=O)C1(O)CCN(c3ccccc3)C1=N2 (stereo not given) [(?)-Blebbistatin] | 0.992 |
| CC[C@H](C)C(=O)O[C@H]1CCC=C2C=C[C@H](C)[C@H](CC[C@@H]3C[C@@H](O)CC(=O)O3)[C@H]21 [Mevastatin] | 0.985 ± 0.02 |
| O=c1oc2ccccc2c(O)c1Cc1c(O)c2ccccc2oc1=O [Dicumarol] | 1 |
| Cn1ccc2cc(NC(=O)Nc3cccnc3)ccc21 | 1.02 |
| CN(C)C[C@@H]1CCn2cc(c3ccccc32)C2=C(C(=O)NC2=O)c2cn(c3ccccc23)CCO1 | 0.985 |
| CN1CCN(CCCN2c3ccccc3Sc3ccc(Cl)cc32)CC1 [Prochlorperazine dimaleate] | 0.92 |
| O=C1c2ccccc2C(=O)c2c1ccc(O)c2O [Alizarin] | 0.968 |
| CC(/C=C1\SC(=S)N(CC(=O)O)C1=O)=C\c1ccccc1 [Epalrestat] | 1.16 |
| CCC(=O)OCN1C(=O)C=CC1=O | 0.987 |
| CCN(CC)CCc1nc(-c2ccccc2)no1 [Oxalamine citrate salt] | 1.02 |
| CC(C)NCC(O)c1ccc(O)c(O)c1 (single isomer, unassigned; (+)) [(+)-Isoproterenol (+)-bitartrate salt] | 0.979 |
| COc1ccc([C@]2(C#N)CC[C@@H](C(=O)O)CC2)cc1OC1CCCC1 | 1.01 |
| CNCC(O)c1ccc(OC(=O)C(C)(C)C)c(OC(=O)C(C)(C)C)c1 (stereo not given) [Dipivefrin hydrochloride] | 0.974 |
| O=C(NCCO)c1cccc(-c2cc(Nc3ccc(OC(F)(F)F)cc3)ncn2)c1 | 1.07 |

| SMILES | surface PD-L1 immunofluorescence intensity |
| --- | --- |
| O=S(=O)(O)NC1CCCCC1 [Cyclamic  acid] | 0.992 |
| CC(C)NC[C@@H](O)COc1cccc2ccccc12 [(R)-(+)-Propranolol hydrochloride] | 0.89 |
| CC(C)NC[C@@H](O)COc1cccc2ccccc12 [(R)-Propranolol hydrochloride] | 1.01 |
| Nc1nc2ccc(Cl)cc2c2nc(-c3ccco3)nn12 | 0.999 |
| CCC(C)N(C)C(=O)c1cc2ccccc2c(-c2ccccc2Cl)n1 (stereo not given) | 1.05 |
| COc1cc2c(cc1C(F)(F)F)N(C(=O)Nc1cc(F)cc(-c3cccnc3)c1)CC2 | 1.07 |
| Cc1c(N(C)CS(=O)(=O)O)c(=O)n(-c2ccccc2)n1C [Dipyrone] | 1.01 |
| C[C@@H]1CCN(C(=O)CC#N)C[C@@H]1N(C)c1ncnc2[nH]ccc12 | 0.747 and 0.696 |
| Cc1cc2c(F)c(Oc3ncnn4cc(OC[C@@H](C)OC(=O)[C@H](C)N)c(C)c34)ccc2[nH]1 | 0.979 ± 0.064 |
| CNc1cc(OC)c(C(=O)NC2CCN(Cc3ccccc3)C2C)cc1Cl (stereo not given) [Nemonapride] | 0.997 |
| COc1cc2c(Oc3ccc4[nH]c(C)cc4c3F)ncnc2cc1OCCCN1CCCC1 [Cediranib (AZD2171)] | 0.979 |
| CC(C)NCC(O)c1ccc2ccccc2c1 (stereo not given) [Pronethalol hydrochloride] | 0.9898 ± 0.0074 |
| CC(=O)O[C@]1(C(C)=O)CC[C@H]2[C@@H]3C[C@H](C)C4=CC(=O)CC[C@]4(C)[C@H]3CC[C@@]21C [Medroxyprogesterone acetate] | 0.912 |
| CCCc1c(OCC(O)COc2ccc3c(=O)cc(C(=O)O)oc3c2CCC)ccc(C(C)=O)c1O (stereo not given) | 0.94 |
| Nc1nc2n[nH]nc2c(=O)[nH]1 [Azaguanine-8] | 0.825 |
| N[C@H](C(=O)O)[C@H](O)c1ccc(O)c(O)c1 [Droxidopa (L-DOPS)] | 0.998 |
| CN(C)c1nc(N(C)C)nc(N(C)C)n1 [Altretamine] | 0.967 |
| NC(=O)C(c1ccccc1)(c1ccccc1)[C@@H]1CCN(CCc2ccc3c(c2)CCO3)C1 [Darifenacin hydrobromide] | 0.965 |
| CCCNCC(O)COc1ccccc1C(=O)CCc1ccccc1 (stereo not given) [Propafenone hydrochloride] | 0.965 |
| CCCNCC(O)COc1ccccc1C(=O)CCc1ccccc1 (stereo not given) [Propafenone] | 1.08 |
| O=C1c2ccc(Nc3ccc(F)cc3F)cc2CCc2ccc(OC[C@H](O)CO)cc21 [Skepinone-L] | 1.09 |
| COc1ccccc1OCC(O)CN1CCN(CC(=O)Nc2c(C)cccc2C)CC1 (stereo not given) [Ranolazine] | 0.996 |
| O=[N+]([O-])c1cccc2cn[nH]c12 [7-Nitroindazole] | 1.08 |
| C[C@H]1C[C@@H]2[C@H]([C@@H](O)C[C@@]3(C)[C@H]2CC[C@]3(O)C(=O)CO)[C@@]2(C)C=CC(=O)C=C12 [Methylprednisolone, 6-alpha] | 0.835 |
| CN(Cc1ccccc1)C(=O)[C@H](Cc1ccc2ccccc2c1)NC(=O)[C@@H]1CCCN1C(=O)Nc1ccccc1[N+](=O)[O-] | 0.943 |
